For 39 compounds, growth results are on record in the supplement of paper PMC8007513.

Some of the results follow. Single values are uncertain, as repeats are few or missing.

The test system of this test is Saccharomyces cerevisiae BY4743. The experiment in a line: growth (OD600) relative to untreated control; higher = less growth inhibition. The following applies: compound concentration: 133 uM; 20 h. The procedure: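 NMCCC compounds (133 uM, no IPBC) tested alone against Saccharomyces cerevisiae BY4743 in YPD, 96-well plates, starting OD600 ~0.1. Growth was read as OD600 at 20 h and expressed as % of the untreated control. Single pass.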
`CCNC(=O)NC(=O)CSc1nnc(-c2cccc(S(=O)(=O)N(CC)CC)c2)o1` displayed a growth of 102%.

Consider `Cc1cc(C)nc(NS(=O)(=O)c2ccc(NC(=O)c3ccccc3OC(C)C)cc2)n1`, for which the growth turned out to be 95.2%.

Compound `CCOc1ccccc1NC(=O)NCc1c(C)nn(CC)c1C` came in with a growth of 71.6%.

The compound `COc1ccc(CCNc2cc(-c3ccccc3)ncn2)cc1OC` displayed a growth of 96%.

As for `CC1CN(S(=O)(=O)c2cccc(C(=O)OCCc3ccccc3)c2)CC(C)O1` (centres undefined), the growth was 81%.

`Cc1cccc(NS(=O)(=O)c2cc(-c3onc(C)c3C)ccc2C)n1`: the growth worked out at 99.2%.

Turning to `CC1=CC=CC=C1CCNC(=O)CN2\N=C(/OC2=O)C3=CC=CC=C3`, the growth was 103%.

`CCOC(=O)C1Sc2nnc(C(F)(F)F)n2NC1c1ccccc1` (centres undefined): the growth was 90.3%.

Consider `Cc1cc(C)cc(-c2nnc(SCc3cc(C)on3)o2)c1`, for which the growth is 69%.

`CCOC(=O)C(CC)N1\C=N/C2=C(C=N[N]2C3=CC=C(Cl)C=C3)C1=O` (centres undefined): the growth was 102%.

For `CCCCc1ccc(CC(=O)Nc2ccc3c(c2)NC(=O)C(C)O3)cc1` (centres undefined), the growth was 107%.

On to `CC(C(=O)O)n1c(SCC(=O)N(C)CCOc2ccc(Cl)cc2)nnc1-c1cccs1` (centres undefined), for which the growth was 112%.

The compound `O=C(NCC(c1ccco1)S(=O)(=O)c1cccs1)C(=O)NC1CCCCC1` (centres undefined) yielded a growth of 99%.

For the compound `CCOC(=O)\C1=C(/COC(=O)C2=CC(=NC3=C2C(=NO3)C)C)NC(=O)NC1`, the growth stood at 111%.

As to `CCOc1ccc(CC(=O)Nc2ccc3nc(NC(C)=O)sc3c2)cc1OCC`, the growth was 114%.

On to `COCCn1c(Cc2ccccc2)nnc1SCC(=O)N1CCCC1=O`, for which the growth stood at 85.3%.

In the case of `CC(=O)NC(C(=O)N1CCN(Cc2nnc3n2CCCCC3)CC1)C(C)C` (centres undefined), the growth was found to be 106%.

Consider `COc1ccc(Br)c(C(=O)Nc2ccc(S(=O)(=O)C(F)F)cc2)c1`, for which the growth worked out at 95.7%.

Turning to `CC(C)[C@H](NC(=O)Cc1ccccc1)C(=O)OCC(=O)N1CCN(c2cccc(Cl)c2)CC1`, the growth was determined as 97.1%.

On to `COC(=O)CNC(=O)CSc1nnc(-c2ccccc2C)n1-c1ccccc1`, for which the growth is 90.6%.

The compound `COC(=O)c1cc(S(=O)(=O)NCCc2sccc2C)c[nH]1` yielded a growth of 102%.

`CCCCc1c(C)nn(-c2nc(C)c(C(=O)NC(C)C)s2)c1O` had a growth of 120%.

`Cc1ccnc(NS(=O)(=O)c2ccc(NS(=O)(=O)Cc3ccccc3)cc2)n1`: the growth came to 98.3%.

Regarding `CCn1c(SCC(=O)O)nc2c(=O)n(C)c(=O)n(C)c21`, the growth turned out to be 104%.

`CCc1ccc(OCC(=O)NC2CCCCC2)c(-n2cnnc2)c1` came in with a growth of 104%.

`CC(OC(=O)\C1=N\N(C(=O)CC1)C2=CC=CC=C2)C(=O)NC3=CC=CC=C3OC(F)F` (centres undefined) displayed a growth of 90.5%.

Compound `Cc1c(C(=O)O)cc(-c2ccc(F)cc2)n1C` showed a growth of 101%.

In the case of `O=C(O)c1nnn(-c2ccccc2Cl)c1-c1ccncc1`, the growth came out at 97.4%.

Compound `O=C(CCCN1C(=O)CSc2ncccc21)NCC1CCCO1` (centres undefined) had a growth of 95.8%.

The compound `O=C(CN(c1cc(C(F)(F)F)ccc1Cl)S(=O)(=O)c1ccccc1)N1CCOCC1` yielded a growth of 105%.

In turn, `COC(=O)\C1=C\N\C=C(/C1C2=CC=C(OC)C(=C2)O)C(=O)OC` displayed a growth of 99.9%.

The compound `CC(O)CN1C(C2=CC=CC=N2)\C(=C(\O)C1=O)C(=O)C3=CC=C(C)C=C3` (centres undefined) gave a growth of 77.9%.

Take `Cn1ccc(NC(=O)CCCc2nc(O)c3ccccc3n2)n1`: the growth was found to be 106%.

The compound `CS(=O)(=O)NCCc1ccc(C(=O)OCC(=O)N2CCCc3ccccc32)s1` displayed a growth of 100%.

`CCSC1(SCC)\N=C(\N)C2(C#N)C(N\C(=C(\C)C12C#N)C)C3=CC=CC=C3` (centres undefined) returned a growth of 111%.

As to `CC(C)c1csc(NC(=O)c2cnn(-c3ccccc3)c2)n1`, the growth was found to be 94%.

In turn, `CCC(=O)Nc1sc(CC#N)nc1-c1ccc(C)cc1` registered a growth of 96.5%.

In the case of `CC(C)N(Cc1ccccc1)Cc1nc(O)c2sccc2n1`, the growth amounted to 103%.

In turn, `CC1=CC=CC=C1C(=O)N(C\2C[S](=O)(=O)\C=C2)C3=CC=CC=C3` (centres undefined) had a growth of 100%.
